Binding data for one substance are collected here from paper PMC10477855.

Chains of the proteins cited; added tags and fusions are not shown.
UniProt P06493: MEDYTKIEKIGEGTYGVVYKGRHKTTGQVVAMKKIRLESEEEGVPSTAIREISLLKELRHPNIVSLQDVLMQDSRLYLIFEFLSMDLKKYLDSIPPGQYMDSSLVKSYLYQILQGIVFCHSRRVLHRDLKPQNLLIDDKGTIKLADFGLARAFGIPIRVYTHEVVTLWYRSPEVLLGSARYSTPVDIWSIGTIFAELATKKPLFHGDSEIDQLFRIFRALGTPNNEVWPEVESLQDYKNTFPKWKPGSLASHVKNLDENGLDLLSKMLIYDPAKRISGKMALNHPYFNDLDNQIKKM
UniProt O95071: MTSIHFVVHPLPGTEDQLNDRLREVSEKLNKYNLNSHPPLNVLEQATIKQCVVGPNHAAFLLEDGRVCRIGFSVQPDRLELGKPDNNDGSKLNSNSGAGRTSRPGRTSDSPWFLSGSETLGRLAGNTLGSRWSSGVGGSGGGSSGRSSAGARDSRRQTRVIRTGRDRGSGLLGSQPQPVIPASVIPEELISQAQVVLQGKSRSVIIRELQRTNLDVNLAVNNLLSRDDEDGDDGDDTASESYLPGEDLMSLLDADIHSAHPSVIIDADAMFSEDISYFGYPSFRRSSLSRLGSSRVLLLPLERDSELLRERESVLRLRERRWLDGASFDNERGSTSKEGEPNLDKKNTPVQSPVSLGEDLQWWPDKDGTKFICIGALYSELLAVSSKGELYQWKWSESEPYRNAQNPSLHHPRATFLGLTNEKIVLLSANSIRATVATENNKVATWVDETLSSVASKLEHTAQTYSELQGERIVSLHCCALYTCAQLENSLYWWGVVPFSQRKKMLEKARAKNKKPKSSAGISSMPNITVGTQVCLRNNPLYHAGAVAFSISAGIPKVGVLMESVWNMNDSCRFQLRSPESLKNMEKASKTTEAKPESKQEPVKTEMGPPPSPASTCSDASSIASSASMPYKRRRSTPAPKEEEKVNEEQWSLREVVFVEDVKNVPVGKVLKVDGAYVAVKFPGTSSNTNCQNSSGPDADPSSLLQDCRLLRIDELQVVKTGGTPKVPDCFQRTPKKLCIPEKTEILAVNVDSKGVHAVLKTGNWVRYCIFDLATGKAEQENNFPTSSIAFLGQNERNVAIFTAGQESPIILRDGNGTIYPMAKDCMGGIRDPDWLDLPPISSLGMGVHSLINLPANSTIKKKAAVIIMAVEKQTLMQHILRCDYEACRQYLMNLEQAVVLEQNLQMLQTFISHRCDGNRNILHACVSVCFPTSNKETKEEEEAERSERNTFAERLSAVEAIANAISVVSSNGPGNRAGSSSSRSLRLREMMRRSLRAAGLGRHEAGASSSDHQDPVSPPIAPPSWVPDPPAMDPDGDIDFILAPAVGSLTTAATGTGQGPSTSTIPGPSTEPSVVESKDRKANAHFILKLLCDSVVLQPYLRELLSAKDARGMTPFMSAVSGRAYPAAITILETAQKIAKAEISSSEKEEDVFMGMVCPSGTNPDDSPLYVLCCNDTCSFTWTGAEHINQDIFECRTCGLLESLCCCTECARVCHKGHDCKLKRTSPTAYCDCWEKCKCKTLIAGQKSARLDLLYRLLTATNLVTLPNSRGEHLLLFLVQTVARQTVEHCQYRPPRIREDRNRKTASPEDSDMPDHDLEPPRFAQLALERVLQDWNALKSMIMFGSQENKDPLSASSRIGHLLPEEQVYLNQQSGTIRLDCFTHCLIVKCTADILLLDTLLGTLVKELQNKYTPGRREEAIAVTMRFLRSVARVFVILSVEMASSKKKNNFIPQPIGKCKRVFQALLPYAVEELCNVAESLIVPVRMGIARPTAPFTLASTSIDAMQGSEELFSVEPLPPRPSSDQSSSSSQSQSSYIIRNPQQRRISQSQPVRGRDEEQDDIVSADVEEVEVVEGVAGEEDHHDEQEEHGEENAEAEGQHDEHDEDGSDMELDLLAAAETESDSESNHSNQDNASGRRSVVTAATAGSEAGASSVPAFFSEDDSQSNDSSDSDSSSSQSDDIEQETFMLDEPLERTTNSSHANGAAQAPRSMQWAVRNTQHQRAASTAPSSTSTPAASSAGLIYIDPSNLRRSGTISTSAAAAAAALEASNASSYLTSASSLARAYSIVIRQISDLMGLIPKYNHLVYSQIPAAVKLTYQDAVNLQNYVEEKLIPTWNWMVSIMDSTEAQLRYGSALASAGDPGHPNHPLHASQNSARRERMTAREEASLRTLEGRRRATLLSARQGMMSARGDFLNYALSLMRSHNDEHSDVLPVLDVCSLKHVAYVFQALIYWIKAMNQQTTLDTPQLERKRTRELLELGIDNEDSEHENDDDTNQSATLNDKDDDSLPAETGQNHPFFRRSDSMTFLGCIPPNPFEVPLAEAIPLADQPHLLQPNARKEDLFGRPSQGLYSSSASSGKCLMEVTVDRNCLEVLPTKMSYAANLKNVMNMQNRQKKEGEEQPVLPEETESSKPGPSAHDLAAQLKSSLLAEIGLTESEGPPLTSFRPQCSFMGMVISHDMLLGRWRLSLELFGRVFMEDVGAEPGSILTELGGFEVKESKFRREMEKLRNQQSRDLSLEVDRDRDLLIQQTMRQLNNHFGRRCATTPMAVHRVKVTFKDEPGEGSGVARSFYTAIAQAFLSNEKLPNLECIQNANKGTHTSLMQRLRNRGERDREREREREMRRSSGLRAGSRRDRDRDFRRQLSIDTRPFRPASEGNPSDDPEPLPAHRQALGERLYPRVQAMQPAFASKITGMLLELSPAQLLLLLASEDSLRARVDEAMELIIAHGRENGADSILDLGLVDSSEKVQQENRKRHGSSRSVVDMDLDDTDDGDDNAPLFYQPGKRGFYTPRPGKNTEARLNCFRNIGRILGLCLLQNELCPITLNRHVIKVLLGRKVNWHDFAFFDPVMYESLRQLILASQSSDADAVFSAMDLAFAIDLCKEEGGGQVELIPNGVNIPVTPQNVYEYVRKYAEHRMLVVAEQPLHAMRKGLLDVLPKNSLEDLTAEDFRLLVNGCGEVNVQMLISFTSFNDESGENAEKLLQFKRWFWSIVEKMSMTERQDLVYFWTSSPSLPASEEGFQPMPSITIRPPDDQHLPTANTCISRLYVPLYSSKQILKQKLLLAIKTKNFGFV

No constants are given. Whether binding was seen depends on the method and setting. In cells and extracts the contact can be indirect. Here binding means that the protein was enriched with, or labelled near, the bait; the list need not be complete.

This assay addresses cyclin-dependent kinase 1 (CDK1) (human (endogenous in HCT8-OR and HT29-OR)) (UniProt P06493). Description: affinity purification with mass spectrometry; CDK1 binding proteins enriched (immunoprecipitated by CDK1), followed by mass spectrometry; cells not given.

Consider “E3 ubiquitin ligase UBR5 (from UniProt O95071 1-2799) (enzyme)”, for which the binding result is “binds”.
